# Test results from the supplement of paper PMC6411743.
# Protein sequences, listed by entry. Tags and fused reporters are not part of them. Lines headed by an entry give the natural chain unless they say otherwise; changes in a name come on top.
# UniProt Q96QF0: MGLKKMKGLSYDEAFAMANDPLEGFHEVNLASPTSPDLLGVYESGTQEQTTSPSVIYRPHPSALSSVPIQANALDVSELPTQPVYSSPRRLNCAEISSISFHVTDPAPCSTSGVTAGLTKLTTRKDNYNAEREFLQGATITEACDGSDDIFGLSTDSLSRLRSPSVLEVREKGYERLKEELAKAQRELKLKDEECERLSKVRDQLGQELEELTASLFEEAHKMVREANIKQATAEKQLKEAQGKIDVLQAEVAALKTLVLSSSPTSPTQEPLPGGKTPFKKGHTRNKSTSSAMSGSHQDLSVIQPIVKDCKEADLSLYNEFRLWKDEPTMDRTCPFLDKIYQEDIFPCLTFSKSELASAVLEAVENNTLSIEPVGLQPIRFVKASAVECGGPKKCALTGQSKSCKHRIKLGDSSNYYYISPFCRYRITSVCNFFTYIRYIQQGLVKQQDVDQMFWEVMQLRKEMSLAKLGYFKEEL
# UniProt Q96ER9: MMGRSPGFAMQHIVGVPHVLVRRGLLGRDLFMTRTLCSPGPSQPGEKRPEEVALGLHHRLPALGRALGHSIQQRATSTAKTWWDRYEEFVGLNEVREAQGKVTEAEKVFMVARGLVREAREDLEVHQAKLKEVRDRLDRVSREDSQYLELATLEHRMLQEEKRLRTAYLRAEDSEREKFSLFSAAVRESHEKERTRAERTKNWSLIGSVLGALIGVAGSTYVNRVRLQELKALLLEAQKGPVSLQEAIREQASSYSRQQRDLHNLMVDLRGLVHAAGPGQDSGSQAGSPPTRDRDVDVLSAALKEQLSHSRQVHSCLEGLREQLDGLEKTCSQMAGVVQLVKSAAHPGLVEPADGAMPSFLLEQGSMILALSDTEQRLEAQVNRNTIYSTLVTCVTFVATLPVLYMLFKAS
# UniProt Q96BJ3: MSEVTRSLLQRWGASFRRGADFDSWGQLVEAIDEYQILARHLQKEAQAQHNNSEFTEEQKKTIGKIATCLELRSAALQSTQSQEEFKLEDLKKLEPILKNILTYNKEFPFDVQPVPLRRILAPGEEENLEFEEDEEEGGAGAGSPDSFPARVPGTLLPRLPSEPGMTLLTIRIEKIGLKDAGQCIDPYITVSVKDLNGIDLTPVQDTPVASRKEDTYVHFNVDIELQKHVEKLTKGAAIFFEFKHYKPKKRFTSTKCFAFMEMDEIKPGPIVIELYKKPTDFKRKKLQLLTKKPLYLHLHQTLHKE
# UniProt Q96ER3: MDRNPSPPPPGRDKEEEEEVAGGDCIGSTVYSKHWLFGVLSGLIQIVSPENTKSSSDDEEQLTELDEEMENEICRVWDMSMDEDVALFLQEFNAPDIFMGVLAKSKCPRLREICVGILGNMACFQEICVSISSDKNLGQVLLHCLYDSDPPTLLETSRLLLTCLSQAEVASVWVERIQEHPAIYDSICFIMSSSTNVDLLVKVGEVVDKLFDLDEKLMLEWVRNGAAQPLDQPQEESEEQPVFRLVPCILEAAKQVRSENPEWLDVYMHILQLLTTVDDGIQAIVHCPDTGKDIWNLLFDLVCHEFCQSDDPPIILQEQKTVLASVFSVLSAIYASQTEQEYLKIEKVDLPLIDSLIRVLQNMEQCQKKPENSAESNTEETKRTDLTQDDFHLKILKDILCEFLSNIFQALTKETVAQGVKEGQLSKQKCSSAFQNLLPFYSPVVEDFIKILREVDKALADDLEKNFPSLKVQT
# UniProt Q96EX1: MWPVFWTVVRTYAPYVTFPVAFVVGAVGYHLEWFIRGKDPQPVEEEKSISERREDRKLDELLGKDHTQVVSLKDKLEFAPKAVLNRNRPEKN
# UniProt Q96C86: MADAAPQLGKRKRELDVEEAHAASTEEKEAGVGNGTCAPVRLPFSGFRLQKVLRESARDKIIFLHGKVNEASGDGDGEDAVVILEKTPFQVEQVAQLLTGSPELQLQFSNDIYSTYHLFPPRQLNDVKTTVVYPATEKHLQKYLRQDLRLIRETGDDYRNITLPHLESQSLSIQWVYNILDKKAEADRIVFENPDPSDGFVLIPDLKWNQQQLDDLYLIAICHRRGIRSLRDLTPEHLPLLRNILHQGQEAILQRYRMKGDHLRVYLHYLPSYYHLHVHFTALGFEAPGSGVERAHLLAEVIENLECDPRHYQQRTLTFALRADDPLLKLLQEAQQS
# UniProt Q96BX8: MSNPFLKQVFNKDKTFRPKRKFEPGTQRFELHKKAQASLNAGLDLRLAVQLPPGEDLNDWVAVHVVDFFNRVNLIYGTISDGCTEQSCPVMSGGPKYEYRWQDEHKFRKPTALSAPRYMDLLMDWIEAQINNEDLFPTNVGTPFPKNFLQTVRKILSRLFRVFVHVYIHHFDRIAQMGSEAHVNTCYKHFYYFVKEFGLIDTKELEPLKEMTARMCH
# UniProt Q969Q5: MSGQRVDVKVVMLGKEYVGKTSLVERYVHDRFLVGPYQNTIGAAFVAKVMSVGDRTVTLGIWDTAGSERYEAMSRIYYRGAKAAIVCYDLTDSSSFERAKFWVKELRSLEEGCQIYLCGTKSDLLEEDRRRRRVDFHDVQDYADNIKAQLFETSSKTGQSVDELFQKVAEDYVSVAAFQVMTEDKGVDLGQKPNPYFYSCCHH
# UniProt Q96NT0: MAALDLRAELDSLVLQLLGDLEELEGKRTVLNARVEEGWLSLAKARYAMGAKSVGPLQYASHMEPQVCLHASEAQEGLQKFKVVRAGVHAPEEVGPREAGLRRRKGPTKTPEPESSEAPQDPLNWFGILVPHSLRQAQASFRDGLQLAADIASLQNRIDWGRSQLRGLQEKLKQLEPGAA
# UniProt Q96JJ7: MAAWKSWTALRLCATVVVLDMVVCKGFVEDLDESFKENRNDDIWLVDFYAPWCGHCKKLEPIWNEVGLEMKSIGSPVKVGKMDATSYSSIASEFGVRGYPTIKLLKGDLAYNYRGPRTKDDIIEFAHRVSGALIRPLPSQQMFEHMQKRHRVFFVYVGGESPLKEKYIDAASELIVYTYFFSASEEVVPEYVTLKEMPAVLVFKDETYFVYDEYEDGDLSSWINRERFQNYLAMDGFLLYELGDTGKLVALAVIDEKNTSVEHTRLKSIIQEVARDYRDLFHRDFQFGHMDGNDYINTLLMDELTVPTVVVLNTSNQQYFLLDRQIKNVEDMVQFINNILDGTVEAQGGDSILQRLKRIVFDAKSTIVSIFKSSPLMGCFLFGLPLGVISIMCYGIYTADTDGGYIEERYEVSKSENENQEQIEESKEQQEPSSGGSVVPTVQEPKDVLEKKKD
# UniProt Q96BD8: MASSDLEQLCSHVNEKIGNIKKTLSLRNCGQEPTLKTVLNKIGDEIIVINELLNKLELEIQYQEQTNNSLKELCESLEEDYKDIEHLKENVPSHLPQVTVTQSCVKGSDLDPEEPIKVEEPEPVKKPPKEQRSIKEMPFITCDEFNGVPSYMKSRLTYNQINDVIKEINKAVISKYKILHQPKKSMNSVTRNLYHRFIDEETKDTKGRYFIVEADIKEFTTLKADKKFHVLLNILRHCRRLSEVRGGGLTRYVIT
# UniProt Q96D53: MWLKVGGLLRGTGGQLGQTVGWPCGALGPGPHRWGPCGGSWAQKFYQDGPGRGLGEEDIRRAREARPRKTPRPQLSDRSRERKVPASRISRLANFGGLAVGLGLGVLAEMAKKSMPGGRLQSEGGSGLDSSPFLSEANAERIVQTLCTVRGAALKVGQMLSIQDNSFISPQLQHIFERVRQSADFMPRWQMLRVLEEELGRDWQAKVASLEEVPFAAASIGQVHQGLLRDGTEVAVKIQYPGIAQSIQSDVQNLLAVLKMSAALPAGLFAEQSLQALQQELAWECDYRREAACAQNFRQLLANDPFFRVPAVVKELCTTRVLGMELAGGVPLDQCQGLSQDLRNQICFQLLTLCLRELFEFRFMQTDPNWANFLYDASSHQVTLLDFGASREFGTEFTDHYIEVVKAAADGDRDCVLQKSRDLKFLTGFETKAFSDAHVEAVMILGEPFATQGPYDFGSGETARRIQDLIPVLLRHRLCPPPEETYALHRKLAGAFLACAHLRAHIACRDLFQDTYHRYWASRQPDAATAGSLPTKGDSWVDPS
# UniProt Q96GJ1: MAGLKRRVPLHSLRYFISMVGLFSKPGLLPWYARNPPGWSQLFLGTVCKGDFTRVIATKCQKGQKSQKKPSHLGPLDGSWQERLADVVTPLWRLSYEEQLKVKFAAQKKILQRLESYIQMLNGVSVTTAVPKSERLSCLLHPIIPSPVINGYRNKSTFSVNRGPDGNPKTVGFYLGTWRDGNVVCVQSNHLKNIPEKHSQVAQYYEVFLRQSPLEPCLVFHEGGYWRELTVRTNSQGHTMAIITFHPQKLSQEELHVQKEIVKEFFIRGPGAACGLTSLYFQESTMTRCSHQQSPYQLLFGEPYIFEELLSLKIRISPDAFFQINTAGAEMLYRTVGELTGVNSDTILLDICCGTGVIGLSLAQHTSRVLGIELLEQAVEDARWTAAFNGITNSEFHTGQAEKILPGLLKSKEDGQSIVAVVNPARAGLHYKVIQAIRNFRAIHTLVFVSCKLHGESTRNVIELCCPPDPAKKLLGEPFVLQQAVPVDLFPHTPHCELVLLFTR
# UniProt Q96PV6, whole entry: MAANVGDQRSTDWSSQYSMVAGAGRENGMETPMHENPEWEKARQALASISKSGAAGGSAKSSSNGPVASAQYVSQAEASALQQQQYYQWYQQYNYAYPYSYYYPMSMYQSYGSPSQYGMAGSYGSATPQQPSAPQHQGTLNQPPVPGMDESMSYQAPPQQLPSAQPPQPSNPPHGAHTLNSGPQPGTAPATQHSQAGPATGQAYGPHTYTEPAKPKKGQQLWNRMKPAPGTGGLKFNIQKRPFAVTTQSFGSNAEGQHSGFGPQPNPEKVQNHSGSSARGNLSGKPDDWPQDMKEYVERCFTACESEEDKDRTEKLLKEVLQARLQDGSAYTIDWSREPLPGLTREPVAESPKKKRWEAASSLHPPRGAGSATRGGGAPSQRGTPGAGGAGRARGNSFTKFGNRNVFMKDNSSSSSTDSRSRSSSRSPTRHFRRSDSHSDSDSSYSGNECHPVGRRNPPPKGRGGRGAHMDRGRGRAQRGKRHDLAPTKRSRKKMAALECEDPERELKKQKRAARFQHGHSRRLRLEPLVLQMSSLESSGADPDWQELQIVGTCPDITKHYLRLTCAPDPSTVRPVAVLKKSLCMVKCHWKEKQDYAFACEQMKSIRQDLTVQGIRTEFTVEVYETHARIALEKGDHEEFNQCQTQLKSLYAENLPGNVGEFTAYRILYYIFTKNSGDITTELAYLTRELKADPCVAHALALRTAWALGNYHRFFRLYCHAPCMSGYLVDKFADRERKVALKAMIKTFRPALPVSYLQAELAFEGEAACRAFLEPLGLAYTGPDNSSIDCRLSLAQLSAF
# UniProt Q96IU4: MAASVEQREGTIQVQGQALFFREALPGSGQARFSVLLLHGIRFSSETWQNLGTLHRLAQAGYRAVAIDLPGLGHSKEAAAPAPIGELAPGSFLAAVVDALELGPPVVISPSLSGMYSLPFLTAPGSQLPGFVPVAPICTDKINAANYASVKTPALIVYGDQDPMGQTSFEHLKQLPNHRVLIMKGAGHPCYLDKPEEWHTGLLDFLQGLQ
# ± gives the standard deviation of the averaged measurements. Only a part is listed here, and it is no random draw.
# Compound: Nc1ncnc2c1ncn2[C@@H]1O[C@H](COP(=O)(O)OP(=O)(O)NP(=O)(O)O)[C@@H](O)[C@H]1O [adenylyl imidodiphosphate]
# Assay: NP40-soluble protein abundance relative to vehicle (solubility fold change) (ratio); higher = more soluble protein in presence of AMP-PNP
# Summary of the method: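 Each value is a fold change relative to the detergent-processed vehicle, calculated per replicate from vsn-normalised intensities. Jurkat crude lysate received eight concentrations (0.1 to 10 mM) for 10 min at room temperature and 3 min at 37 °C, then was solubilised in 0.8% NP40 with benzonase (60 min, 4 °C). The ultracentrifuged supernatant was TMT-labelled and run by LC-MS/MS in three independent experiments.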
Target,NP40-soluble protein abundance (concentration: 1mM),NP40-soluble protein abundance (concentration: 2mM),NP40-soluble protein abundance (concentration: 4mM),NP40-soluble protein abundance (concentration: 6mM),NP40-soluble protein abundance (concentration: 8mM),NP40-soluble protein abundance (concentration: 10mM)
UniProt Q96L73 and related entries,1.03 ± 0.022,1.02 ± 0.1,1.02 ± 0.035,1.04 ± 0.031,1.02 ± 0.016,1.064 ± 0.0032
ANKRD27 (UniProt Q96NW4),1.01 ± 0.024,1 ± 0.042,1.02 ± 0.05,0.986 ± 0.028,0.962 ± 0.019,0.97 ± 0.021
GNPNAT1 (UniProt Q96EK6),1.06 ± 0.029,1 ± 0.051,1.04 ± 0.026,1.01 ± 0.035,1.03 ± 0.015,1.02 ± 0.045
UniProt Q96QF0 and related entries,1.04 ± 0.038,1.02 ± 0.037,1.02 ± 0.037,1 ± 0.022,0.978 ± 0.028,0.997 ± 0.029
C8orf76 (UniProt Q96K31),1.01 ± 0.015,1 ± 0.014,0.975 ± 0.026,0.974 ± 0.041,0.983 ± 0.024,0.986 ± 0.017
UniProt Q96AP4 and related entries,1.002 ± 0.0093,1 ± 0.022,0.992 ± 0.029,0.997 ± 0.027,0.99 ± 0.027,0.978 ± 0.028
CCDC51 (UniProt Q96ER9),1.03 ± 0.05,1.07 ± 0.023,1.02 ± 0.011,1.01 ± 0.023,0.981 ± 0.02,1.04 ± 0.012
UniProt Q96PY6 and related entries,0.9959 ± 0.0098,0.993 ± 0.021,1 ± 0.038,0.949 ± 0.05,0.956 ± 0.019,0.944 ± 0.018
AIDA (UniProt Q96BJ3),1.02 ± 0.012,1.01 ± 0.032,0.993 ± 0.013,0.995 ± 0.021,0.97 ± 0.022,0.978 ± 0.056
UniProt Q96ER3 and related entries,1.03 ± 0.048,1.01 ± 0.034,1 ± 0.042,0.9542 ± 0.0059,0.9253 ± 0.0025,0.941 ± 0.032
PTER (UniProt Q96BW5),0.958 ± 0.016,0.915 ± 0.025,0.991 ± 0.029,1.02 ± 0.049,1.01 ± 0.036,1.01 ± 0.033
CDK5RAP3 (UniProt Q96JB5),1 ± 0.034,0.992 ± 0.014,0.994 ± 0.12,0.977 ± 0.096,1.05 ± 0.036,1.04 ± 0.04
UniProt Q96QT6 and related entries,0.994 ± 0.022,1.0145 ± 0.00096,1.002 ± 0.0092,1.027 ± 0.0029,1.05 ± 0.047,1.07 ± 0.043
UniProt Q96DU3 and related entries,0.988 ± 0.013,1.01 ± 0.086,0.992 ± 0.048,1.01 ± 0.062,1.01 ± 0.031,1.01 ± 0.059
USP13 (UniProt Q92995),1.01 ± 0.0077,0.946 ± 0.068,0.996 ± 0.03,0.949 ± 0.026,0.968 ± 0.026,0.951 ± 0.033
UniProt Q96EX1,0.944 ± 0.021,1.05 ± 0.11,0.899 ± 0.017,0.976 ± 0.018,0.879 ± 0.011,0.948 ± 0.079
UniProt Q969X5 and related entries,0.93 ± 0.054,0.829 ± 0.078,0.87 ± 0.045,0.915 ± 0.081,0.935 ± 0.036,0.903 ± 0.041
DCPS (UniProt Q96C86),0.973 ± 0.024,0.931 ± 0.047,0.949 ± 0.034,0.933 ± 0.0091,0.926 ± 0.035,0.911 ± 0.03
UniProt Q96ED9-2|Q96ED9,0.983 ± 0.027,1.01 ± 0.038,0.977 ± 0.048,0.98 ± 0.042,0.963 ± 0.041,0.95 ± 0.063
UniProt Q96D96 and related entries,1.02 ± 0.053,0.991 ± 0.027,1.04 ± 0.052,1.03 ± 0.067,1.03 ± 0.079,1.04 ± 0.12

Target,NP40-soluble protein abundance (concentration: 1mM),NP40-soluble protein abundance (concentration: 2mM),NP40-soluble protein abundance (concentration: 4mM),NP40-soluble protein abundance (concentration: 6mM),NP40-soluble protein abundance (concentration: 8mM),NP40-soluble protein abundance (concentration: 10mM)
ZC3HAV1L (UniProt Q96H79),1.02 ± 0.03,0.994 ± 0.031,1.02 ± 0.077,1.07 ± 0.077,1.09 ± 0.075,1.09 ± 0.03
ZNF830 (UniProt Q96NB3),1.05 ± 0.023,1.11 ± 0.015,1.06 ± 0.03,1.04 ± 0.031,1.04 ± 0.051,1.04 ± 0.049
UniProt Q96BR5,1.01 ± 0.029,1.04 ± 0.065,0.999 ± 0.025,1.06 ± 0.023,1.043 ± 0.0083,1.05 ± 0.018
ITPKC (UniProt Q96DU7),0.967 ± 0.031,0.966 ± 0.049,0.951 ± 0.051,0.973 ± 0.042,0.953 ± 0.022,0.949 ± 0.05
UniProt Q96BX8,0.982 ± 0.026,0.942 ± 0.032,0.96 ± 0.059,0.935 ± 0.013,0.969 ± 0.022,0.9107 ± 0.0078
RAB24 (UniProt Q969Q5),0.996 ± 0.014,0.977 ± 0.019,0.998 ± 0.057,0.98 ± 0.035,0.998 ± 0.033,0.978 ± 0.05
ZNF48 (UniProt Q96MX3),1.015 ± 0.0097,1.062 ± 0.0052,1.05 ± 0.033,1.06 ± 0.028,1.06 ± 0.017,1.12 ± 0.059
ITFG2 (UniProt Q969R8),0.97 ± 0.03,0.981 ± 0.032,0.967 ± 0.0066,0.981 ± 0.043,0.979 ± 0.051,0.976 ± 0.024
UniProt Q96FA3,0.9865 ± 0.0024,1 ± 0.014,0.978 ± 0.029,0.984 ± 0.017,0.992 ± 0.01,1.01 ± 0.049
UniProt Q96HI0 and related entries,0.98 ± 0.012,0.989 ± 0.0019,0.95908 ± 5.7e-06,0.9327 ± 0.0078,0.9166 ± 0.0065,0.917 ± 0.0073
GLMN (UniProt Q92990),0.986 ± 0.03,0.961 ± 0.024,0.965 ± 0.031,0.93 ± 0.02,0.926 ± 0.021,0.875 ± 0.023
UniProt Q96BN8,1 ± 0.027,0.936 ± 0.028,0.981 ± 0.03,0.991 ± 0.042,0.996 ± 0.023,0.972 ± 0.021
UniProt Q93008 and related entries,0.978 ± 0.018,0.899 ± 0.09,0.968 ± 0.041,0.9306 ± 0.0079,0.965 ± 0.036,0.907 ± 0.038
CCDC115 (UniProt Q96NT0),0.994 ± 0.046,1.01 ± 0.043,1.01 ± 0.035,1 ± 0.04,0.968 ± 0.06,0.992 ± 0.041
SMARCE1 (UniProt Q969G3),1.01 ± 0.019,1.13 ± 0.12,1.07 ± 0.072,1.23 ± 0.088,1.16 ± 0.08,1.17 ± 0.084
UniProt Q96L93 and related entries,0.999 ± 0.034,0.99 ± 0.041,1.01 ± 0.058,0.958 ± 0.025,0.966 ± 0.018,0.991 ± 0.049
RCHY1 (UniProt Q96PM5),1.02 ± 0.027,1.02 ± 0.043,0.991 ± 0.052,0.951 ± 0.028,0.9727 ± 0.0089,0.914 ± 0.026
VPS35 (UniProt Q96QK1),0.975 ± 0.062,0.92 ± 0.043,0.981 ± 0.054,0.974 ± 0.067,1 ± 0.079,0.96 ± 0.057
UniProt Q96NC0,1.04 ± 0.029,1.08 ± 0.13,1.08 ± 0.094,1.18 ± 0.1,1.15 ± 0.082,1.25 ± 0.1
PCMTD1 (UniProt Q96MG8),1.03 ± 0.034,1.01 ± 0.043,1.01 ± 0.021,1.01 ± 0.029,1 ± 0.043,0.992 ± 0.049

# Reformatted with tabs: part of the list above.
Target	NP40-soluble protein abundance (concentration: 1mM)	NP40-soluble protein abundance (concentration: 2mM)	NP40-soluble protein abundance (concentration: 4mM)	NP40-soluble protein abundance (concentration: 6mM)	NP40-soluble protein abundance (concentration: 8mM)	NP40-soluble protein abundance (concentration: 10mM)
UniProt Q96BR5	1.01 ± 0.029	1.04 ± 0.065	0.999 ± 0.025	1.06 ± 0.023	1.043 ± 0.0083	1.05 ± 0.018
ITPKC (UniProt Q96DU7)	0.967 ± 0.031	0.966 ± 0.049	0.951 ± 0.051	0.973 ± 0.042	0.953 ± 0.022	0.949 ± 0.05
UniProt Q96BX8	0.982 ± 0.026	0.942 ± 0.032	0.96 ± 0.059	0.935 ± 0.013	0.969 ± 0.022	0.9107 ± 0.0078
RAB24 (UniProt Q969Q5)	0.996 ± 0.014	0.977 ± 0.019	0.998 ± 0.057	0.98 ± 0.035	0.998 ± 0.033	0.978 ± 0.05
ZNF48 (UniProt Q96MX3)	1.015 ± 0.0097	1.062 ± 0.0052	1.05 ± 0.033	1.06 ± 0.028	1.06 ± 0.017	1.12 ± 0.059
ITFG2 (UniProt Q969R8)	0.97 ± 0.03	0.981 ± 0.032	0.967 ± 0.0066	0.981 ± 0.043	0.979 ± 0.051	0.976 ± 0.024
UniProt Q96FA3	0.9865 ± 0.0024	1 ± 0.014	0.978 ± 0.029	0.984 ± 0.017	0.992 ± 0.01	1.01 ± 0.049
UniProt Q96HI0 and related entries	0.98 ± 0.012	0.989 ± 0.0019	0.95908 ± 5.7e-06	0.9327 ± 0.0078	0.9166 ± 0.0065	0.917 ± 0.0073
GLMN (UniProt Q92990)	0.986 ± 0.03	0.961 ± 0.024	0.965 ± 0.031	0.93 ± 0.02	0.926 ± 0.021	0.875 ± 0.023
UniProt Q96BN8	1 ± 0.027	0.936 ± 0.028	0.981 ± 0.03	0.991 ± 0.042	0.996 ± 0.023	0.972 ± 0.021
UniProt Q93008 and related entries	0.978 ± 0.018	0.899 ± 0.09	0.968 ± 0.041	0.9306 ± 0.0079	0.965 ± 0.036	0.907 ± 0.038
CCDC115 (UniProt Q96NT0)	0.994 ± 0.046	1.01 ± 0.043	1.01 ± 0.035	1 ± 0.04	0.968 ± 0.06	0.992 ± 0.041
SMARCE1 (UniProt Q969G3)	1.01 ± 0.019	1.13 ± 0.12	1.07 ± 0.072	1.23 ± 0.088	1.16 ± 0.08	1.17 ± 0.084

# More results.

Target,NP40-soluble protein abundance (concentration: 1mM),NP40-soluble protein abundance (concentration: 2mM),NP40-soluble protein abundance (concentration: 4mM),NP40-soluble protein abundance (concentration: 6mM),NP40-soluble protein abundance (concentration: 8mM),NP40-soluble protein abundance (concentration: 10mM)
MARS2 (UniProt Q96GW9),0.993 ± 0.04,0.976 ± 0.036,1 ± 0.022,0.987 ± 0.031,0.991 ± 0.045,0.965 ± 0.036
DUS3L (UniProt Q96G46),1.02 ± 0.011,1.03 ± 0.017,1.02 ± 0.022,1.01 ± 0.035,0.99 ± 0.044,1.01 ± 0.052
UniProt Q96GC9,0.998 ± 0.034,1.01 ± 0.045,1.008 ± 0.006,0.97552 ± 0.00086,0.962 ± 0.021,0.9707 ± 0.0025
UniProt Q96JJ7,0.991 ± 0.033,0.942 ± 0.057,0.994 ± 0.011,1 ± 0.043,1.02 ± 0.018,1.02 ± 0.028
UniProt Q93074-2,1.01 ± 0.032,1 ± 0.028,1.06 ± 0.019,0.971 ± 0.08,0.984 ± 0.042,0.999 ± 0.067
UniProt Q96CW5 and related entries,1.04 ± 0.029,1.03 ± 0.047,1.03 ± 0.095,1.05 ± 0.092,1.08 ± 0.13,1.08 ± 0.14
MSI2 (UniProt Q96DH6),1 ± 0.029,1.03 ± 0.033,1.03 ± 0.044,1.06 ± 0.046,1.05 ± 0.021,1.07 ± 0.044
UniProt Q96BD8,0.979 ± 0.018,1.04 ± 0.016,0.981 ± 0.035,0.974 ± 0.028,0.988 ± 0.047,0.9505 ± 0.0082
UniProt Q96BY6 and related entries,0.972 ± 0.024,0.935 ± 0.096,1 ± 0.015,0.966 ± 0.021,0.969 ± 0.013,0.945 ± 0.036
ZC3H10 (UniProt Q96K80),1.02 ± 0.03,1.04 ± 0.015,1.01 ± 0.057,0.977 ± 0.036,0.986 ± 0.06,0.971 ± 0.054
UniProt Q96D53,0.973 ± 0.012,0.923 ± 0.039,0.952 ± 0.022,0.9446 ± 0.009,0.962 ± 0.038,0.958 ± 0.033
UniProt Q96B23-2,1.03 ± 0.058,1.06 ± 0.072,1.02 ± 0.024,1.01 ± 0.0076,0.977 ± 0.012,1.02 ± 0.021
UniProt Q969M7 and related entries,1.02 ± 0.074,1.05 ± 0.019,1.01 ± 0.091,0.9346 ± 0.0047,0.958 ± 0.042,0.894 ± 0.071
IPO9 (UniProt Q96P70),1.03 ± 0.035,1.03 ± 0.038,1.01 ± 0.03,0.982 ± 0.043,1.01 ± 0.051,0.979 ± 0.063
UniProt Q96GJ1 and related entries,0.9408 ± 0.0071,0.944 ± 0.026,0.957 ± 0.024,0.9518 ± 0.0072,0.974 ± 0.024,0.949 ± 0.053
UniProt Q96PV6-2,1.01 ± 0.023,1.05 ± 0.038,1.056 ± 0.0033,1.03 ± 0.027,1.055 ± 0.0091,1.07 ± 0.034
MRPL24 (UniProt Q96A35),0.973 ± 0.11,0.964 ± 0.067,0.951 ± 0.14,0.898 ± 0.16,0.897 ± 0.16,0.917 ± 0.18
ABHD14B (UniProt Q96IU4),0.9947 ± 0.0093,0.98 ± 0.015,0.96 ± 0.011,0.967 ± 0.025,0.97 ± 0.023,0.978 ± 0.033
UniProt Q96D71 and related entries,1 ± 0.022,1.03 ± 0.041,1.02 ± 0.025,1.05 ± 0.042,1.05 ± 0.04,1.09 ± 0.043
ZKSCAN4 (UniProt Q969J2),0.98477 ± 0.00071,0.996 ± 0.023,0.953 ± 0.014,0.992 ± 0.042,1.01 ± 0.041,1.03 ± 0.07
